Results reported in US7074778B2, “Asthma associated factors as targets for treating atopic allergies including asthma and related disorders” (Genaera Corporation, priority 1999, dated 2006).
At least one structure is not confirmed: it was looked up by name or label, or the drawing left a doubt.

Test system: mice sensitized to antigen
Experiment: Airway hyperresponsiveness in mice sensitized to Aspergillus fumigatus antigen (APTI)
Format: in vivo, mouse
Details: DBA2J mice sensitized to antigen, FIG. 15
Protocol: DBA2, C57BL6 or B6D2F1 mice, five to six weeks of age, were obtained from the National Cancer Institute or Jackson Laboratories. Animals were housed in high-efficiency particulate filtered air laminar flow hoods in a virus and antigen free facility and allowed free access to pelleted rodent chow and water for three to seven days prior to experimental manipulation. The animal facilities were maintained at 22° C. and the light:dark cycle is automatically controlled (10:14 hour cycle).
Phenotyping and efficacy of pretreatment. Animals either received no pretreatment or were sensitized by nasal aspiration of Aspergillus fumigatus antigen to assess the effect on bronchial hyperresponsiveness, bronchoalveolar lavage and serum IgE. Mice were challenged with Aspergillus or saline intranasally (Monday, Wednesday and Friday for three weeks) and phenotyped twenty-four hours after the last dose. […] To determine the bronchoconstrictor response, respiratory system pressure was measured at the trachea and recorded before and during exposure to the drug. […] Airway responsiveness was measured to one or more of the following: 5-hydroxytryptamine, acetylcholine, atracurium or a substance-P analogue. […] The APTI was assessed by the change in peak respiratory pressure integrated from the time of injection until the peak pressure returns to baseline or plateau. […]

## C[C@@H]1C[C@H]2[C@@H]3CCC4=CC(=O)C=C[C@]4(C)[C@@]3(F)[C@@H](O)C[C@]2(C)[C@@]1(O)C(=O)CO [dexamethasone]
  block of airway hyperresponsiveness: Inhibition of bronchial hyperresponsiveness
